Source: publication PMC7464140, “Cooperative Regulation of Campylobacter jejuni Heat-Shock Genes by HspR and HrcA” (Microorganisms, 2020)
Results are given in words; binding and its absence hold for the method and conditions named. Some binding calls cover weakened binding; strength is not graded here. Tags and fused reporters may be left off the sequences shown.

T1: HrcA (C. jejuni), bacterial two-hybrid (BACTH) fusion (C. jejuni) (UniProt Q9PPG2)
T1 sequence: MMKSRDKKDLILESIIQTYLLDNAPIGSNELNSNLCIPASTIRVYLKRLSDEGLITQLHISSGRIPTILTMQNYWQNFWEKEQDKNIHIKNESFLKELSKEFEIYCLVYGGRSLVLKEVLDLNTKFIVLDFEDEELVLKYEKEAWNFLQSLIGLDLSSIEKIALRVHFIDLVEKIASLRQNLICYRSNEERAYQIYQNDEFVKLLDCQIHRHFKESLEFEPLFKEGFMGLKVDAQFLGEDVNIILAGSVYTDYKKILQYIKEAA

T2: His-tagged HrcA (C. jejuni) (C. jejuni) (UniProt Q9PPG2)
T2 sequence: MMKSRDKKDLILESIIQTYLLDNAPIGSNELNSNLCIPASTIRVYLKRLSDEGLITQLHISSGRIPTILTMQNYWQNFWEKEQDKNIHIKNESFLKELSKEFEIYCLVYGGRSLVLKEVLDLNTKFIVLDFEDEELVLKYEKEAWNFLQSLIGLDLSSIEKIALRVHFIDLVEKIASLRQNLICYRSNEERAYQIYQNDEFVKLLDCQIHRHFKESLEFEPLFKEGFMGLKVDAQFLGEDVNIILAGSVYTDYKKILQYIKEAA

T3: GST-HrcA fusion protein (C. jejuni) (C. jejuni) (UniProt Q9PPG2)
T3 sequence: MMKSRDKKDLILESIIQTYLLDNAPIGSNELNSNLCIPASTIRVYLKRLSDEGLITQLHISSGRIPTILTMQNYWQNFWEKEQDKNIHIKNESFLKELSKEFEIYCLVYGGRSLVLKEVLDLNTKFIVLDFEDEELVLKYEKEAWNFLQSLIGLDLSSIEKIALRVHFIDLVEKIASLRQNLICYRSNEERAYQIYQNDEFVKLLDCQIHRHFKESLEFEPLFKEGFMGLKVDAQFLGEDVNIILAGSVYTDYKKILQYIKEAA

T4: GST-HspR fusion protein (C. jejuni) (C. jejuni) (UniProt Q0P926)
T4 sequence: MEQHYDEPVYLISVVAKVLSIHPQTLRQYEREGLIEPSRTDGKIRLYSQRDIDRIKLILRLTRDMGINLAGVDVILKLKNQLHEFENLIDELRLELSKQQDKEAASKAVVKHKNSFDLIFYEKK


How the values were obtained:
[1] = target: T1, HrcA (C. jejuni), bacterial two-hybrid (BACTH) fusion (C. jejuni); assay: two-hybrid; Bacterial Adenylate Cyclase Two-Hybrid System (BACTH) in E. coli BTH101 (Figure S3)
[2] = target: T2, His-tagged HrcA (C. jejuni) (C. jejuni); assay: cross-linking; in vitro chemical cross-linking of HrcA and HspR proteins with formaldehyde (Figure S2); both purified
[3] = target: T3, GST-HrcA fusion protein (C. jejuni) (C. jejuni); assay: pull-down; GST, GST-HspR or GST-HrcA on Glutathione-Sepharose (equimolar) incubated with 250 ng/μL purified His-HspR in 200 μL 1× FPB, 1.5 h at 4 °C; seven washes; SDS-PAGE (Coomassie) and anti-His Western blot; both purified
[4] = target: T4, GST-HspR fusion protein (C. jejuni) (C. jejuni); assay: as above
[5] = target: HspR (C. jejuni), bacterial two-hybrid (BACTH) fusion (C. jejuni) (UniProt Q0P926); assay: two-hybrid; Bacterial Adenylate Cyclase Two-Hybrid System (BACTH) in E. coli BTH101 (Figure S3)

binding [1] | binding [2] | binding [3] | binding [4] | binding [5] | Binder
binds |  |  |  |  | HrcA (C. jejuni), bacterial two-hybrid (BACTH) fusion (protein, UniProt Q9PPG2 1-264) MMKSRDKKDLILESIIQTYLLDNAPIGSNELNSNLCIPASTIRVYLKRLSDEGLITQLHISSGRIPTILTMQNYWQNFWEKEQDKNIHIKNESFLKELSKEFEIYCLVYGGRSLVLKEVLDLNTKFIVLDFEDEELVLKYEKEAWNFLQSLIGLDLSSIEKIALRVHFIDLVEKIASLRQNLICYRSNEERAYQIYQNDEFVKLLDCQIHRHFKESLEFEPLFKEGFMGLKVDAQFLGEDVNIILAGSVYTDYKKILQYIKEAA
 | binds | binds | binds |  | His-tagged HspR (C. jejuni) (natural protein, UniProt Q0P926 1-124, looked up, HspR heat-shock transcriptional repressor of Campylobacter jejuni; Probably strain NCTC11168, the only C. jejuni strain named; also called His-HspR; recombinant His-tagged HspR; source: E. coli BL21 (DE3), pET15b-hspR, purified (Ni2+-NTA)) MEQHYDEPVYLISVVAKVLSIHPQTLRQYEREGLIEPSRTDGKIRLYSQRDIDRIKLILRLTRDMGINLAGVDVILKLKNQLHEFENLIDELRLELSKQQDKEAASKAVVKHKNSFDLIFYEKK
binds |  |  |  | binds | HspR (C. jejuni), bacterial two-hybrid (BACTH) fusion (protein, UniProt Q0P926 1-124) MEQHYDEPVYLISVVAKVLSIHPQTLRQYEREGLIEPSRTDGKIRLYSQRDIDRIKLILRLTRDMGINLAGVDVILKLKNQLHEFENLIDELRLELSKQQDKEAASKAVVKHKNSFDLIFYEKK
